Results from article PMC12823551.
These are yes or no findings as the source states them, for the method shown. Binding seen in cells or lysates may run through a third protein. Some results given as binding are weak or reduced against the parent protein; the word gives no strength.

Sequences of proteins named here, by UniProt entry; tags and fusion partners are left off.
UniProt Q01094: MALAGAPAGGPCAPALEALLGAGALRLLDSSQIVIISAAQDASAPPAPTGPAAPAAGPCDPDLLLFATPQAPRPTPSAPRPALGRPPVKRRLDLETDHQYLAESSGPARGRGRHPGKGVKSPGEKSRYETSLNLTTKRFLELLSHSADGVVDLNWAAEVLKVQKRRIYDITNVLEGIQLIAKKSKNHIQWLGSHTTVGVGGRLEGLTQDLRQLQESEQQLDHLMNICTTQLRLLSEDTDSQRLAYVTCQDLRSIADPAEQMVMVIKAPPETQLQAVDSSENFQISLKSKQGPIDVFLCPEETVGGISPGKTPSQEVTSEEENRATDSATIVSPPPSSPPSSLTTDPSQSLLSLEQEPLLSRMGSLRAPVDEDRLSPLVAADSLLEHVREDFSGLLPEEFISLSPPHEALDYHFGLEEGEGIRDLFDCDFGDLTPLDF
UniProt Q08999: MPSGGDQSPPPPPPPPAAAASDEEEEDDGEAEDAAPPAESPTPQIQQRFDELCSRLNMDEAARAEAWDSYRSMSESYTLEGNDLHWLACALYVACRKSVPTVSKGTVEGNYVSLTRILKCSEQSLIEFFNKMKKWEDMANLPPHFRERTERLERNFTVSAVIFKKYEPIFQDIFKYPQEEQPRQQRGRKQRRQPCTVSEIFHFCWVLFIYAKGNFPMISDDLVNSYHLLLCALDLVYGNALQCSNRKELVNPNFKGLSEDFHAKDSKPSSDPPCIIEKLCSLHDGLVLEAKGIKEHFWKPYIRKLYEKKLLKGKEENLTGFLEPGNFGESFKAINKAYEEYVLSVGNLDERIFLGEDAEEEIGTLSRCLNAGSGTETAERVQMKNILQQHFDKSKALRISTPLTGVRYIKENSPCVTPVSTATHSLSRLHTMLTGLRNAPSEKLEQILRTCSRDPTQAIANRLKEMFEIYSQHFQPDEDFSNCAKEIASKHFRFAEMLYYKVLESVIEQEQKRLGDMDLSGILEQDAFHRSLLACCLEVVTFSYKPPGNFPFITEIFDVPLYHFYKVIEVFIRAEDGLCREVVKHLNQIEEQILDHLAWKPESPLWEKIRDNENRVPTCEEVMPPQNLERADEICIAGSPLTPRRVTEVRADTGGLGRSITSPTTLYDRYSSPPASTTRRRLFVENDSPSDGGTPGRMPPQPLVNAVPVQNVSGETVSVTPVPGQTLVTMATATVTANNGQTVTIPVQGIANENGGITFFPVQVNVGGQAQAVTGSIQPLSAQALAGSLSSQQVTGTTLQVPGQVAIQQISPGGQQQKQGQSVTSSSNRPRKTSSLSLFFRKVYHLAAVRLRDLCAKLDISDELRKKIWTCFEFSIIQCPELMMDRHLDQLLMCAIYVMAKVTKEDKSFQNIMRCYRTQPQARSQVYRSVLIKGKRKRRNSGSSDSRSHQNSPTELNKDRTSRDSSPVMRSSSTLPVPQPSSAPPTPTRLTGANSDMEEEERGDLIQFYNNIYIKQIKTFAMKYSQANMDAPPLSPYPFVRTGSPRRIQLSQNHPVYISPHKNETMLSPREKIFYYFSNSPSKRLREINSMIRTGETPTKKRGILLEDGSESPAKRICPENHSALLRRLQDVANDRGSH

Target: E2F1 (human (endogenous in hPSC-derived neuroectoderm cells)) (UniProt Q01094)
Assay: co-IP; neuroectoderm cells; nuclear and chromatin (Benzonase) extracts in Nuclear Lysis Buffer with 0.3% Triton X-100; 5 ug cross-linked antibodies, 12 h at 4 C; five washes; western blot; alternatively the nuclear complex co-IP kit (Active Motif)

binding: binds weakly
Substance: RBL2/p130 (from UniProt Q08999 1-1139)
